These are yes or no findings as the source states them, for the method shown. In cells and extracts the contact can be indirect. Binding can be weak; no strength is given.
Molecular target: Flag::RAB-8 (C. elegans) (UniProt G5EFC1)
Test: co-IP; GFP::RABN-8 and Flag::RAB-8 co-transfected in HEK293 cells; lysis in RIPA buffer; IP with anti-Flag antibody overnight at 4 °C, protein A/G agarose; blot with anti-GFP; mouse IgG as negative control

The chains behind the UniProt entries cited, without tags or fusion partners. Where a name states a change or a piece, a line headed by the entry shows the natural chain unless it says otherwise.
UniProt G5EFC1: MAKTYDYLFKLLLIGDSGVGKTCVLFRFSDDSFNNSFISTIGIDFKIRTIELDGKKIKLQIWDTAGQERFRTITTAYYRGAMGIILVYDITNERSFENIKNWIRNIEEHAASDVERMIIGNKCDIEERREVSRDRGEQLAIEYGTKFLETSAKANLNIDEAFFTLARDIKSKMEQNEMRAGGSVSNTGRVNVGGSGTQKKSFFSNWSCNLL
UniProt Q20759: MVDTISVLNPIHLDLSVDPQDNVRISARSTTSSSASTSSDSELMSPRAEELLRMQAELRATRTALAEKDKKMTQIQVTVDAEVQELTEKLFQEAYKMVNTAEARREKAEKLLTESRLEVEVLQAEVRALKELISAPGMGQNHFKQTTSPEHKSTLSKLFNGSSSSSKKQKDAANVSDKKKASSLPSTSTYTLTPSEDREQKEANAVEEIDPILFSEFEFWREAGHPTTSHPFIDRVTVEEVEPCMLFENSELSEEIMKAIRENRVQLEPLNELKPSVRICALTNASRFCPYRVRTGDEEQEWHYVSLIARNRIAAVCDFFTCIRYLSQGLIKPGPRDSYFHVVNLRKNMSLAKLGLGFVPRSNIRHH

binding: binds
Substance: GFP::RABN-8 (from UniProt Q20759)

— article PMC7589727
